Counter-ions that a name gives are not always drawn. Like-named read-outs stand apart in the source and are kept apart here.

Data on one molecule can be found in patent US12268781B2, “Sustained-release pharmaceutical compositions comprising a therapeutic agent for treating dementia and uses thereof” (priority 2018, dated 2025).

A short description of data set [1]: PK study of liposomal donepezil in rats, subcutaneous injection. Here is the method:
An in vivo PK evaluation of the liposomal rivastigmine formulation was performed using 7-8 weeks old female Sprague-Dawley rats. The rats were housed in a holding room which operated on a 12-hr light/12-hr dark circadian cycle with free access to water and food.
The rats were divided into two groups (n=3 in each group), one group received subcutaneous injection of 10 mg/kg of free rivastigmine tartrate, prepared by dissolving rivastigmine tartrate in ultrapure water with a final concentration of 2 mg/mL. The other group received subcutaneous injection of 10 mg/kg of liposomal rivastigmine tartrate, prepared according to Example 1. Blood samples were collected at 15 min, 1, 2, 4, 6, 8, 24, 48, and 72 hours post-injection. Plasma samples were obtained by centrifugation, kept frozen at −80° C. and analyzed using a noncompartmental analysis model in PKSolver (Comput Methods Programs Biomed. 2010; 99(3):306-314).

For data set [2] the following is noted: rats, cited from earlier work.
Setting [3] is: female, Sprague-Dawley, rat, in vivo, sc, 10 mg/kg.

As for `COc1cc2c(cc1OC)C(=O)C(CC1CCN(Cc3ccccc3)CC1)C2` (centres unmarked) [Free Donepezil, donepezil hydrochloride], the AUC(0-inf) – broadly, the area under the concentration-time curve extrapolated to infinity – in data set [1] (setting [3]) was determined as 2590 ng·h/mL. Further, the half-life (commonly how long it takes for the measured level to halve) was 3.37 h in data set [1] (setting [3]), 4.2 h in data set [2] (intranasal administration) and 4.3 h in data set [2] (oral administration). The donepezil in plasma entry in data set [1] (rats, 24 hours post injection, FIG. 3) is on record as “undetectable”.
